This is one part of the list.

The source of these data is publication PMC7819943, “Rice protein-binding microarrays: a tool to detect cis-acting elements near promoter regions in rice”.

For the assay, the target named is T1, OsSMF1 (Oryza sativa, UniProt Q6ZLB0 1-436).
T1 sequence: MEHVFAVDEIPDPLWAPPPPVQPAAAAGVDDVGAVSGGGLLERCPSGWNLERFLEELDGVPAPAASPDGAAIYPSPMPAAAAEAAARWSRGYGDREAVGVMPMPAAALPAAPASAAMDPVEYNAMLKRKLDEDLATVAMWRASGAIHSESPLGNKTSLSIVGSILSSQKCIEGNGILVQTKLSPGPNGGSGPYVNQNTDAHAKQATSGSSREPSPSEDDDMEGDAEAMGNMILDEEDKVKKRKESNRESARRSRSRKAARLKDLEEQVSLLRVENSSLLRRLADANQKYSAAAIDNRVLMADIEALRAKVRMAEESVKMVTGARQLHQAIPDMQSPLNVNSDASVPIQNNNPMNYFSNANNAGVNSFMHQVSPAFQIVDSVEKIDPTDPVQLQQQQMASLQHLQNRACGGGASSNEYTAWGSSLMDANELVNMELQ
Nature of the assay: protein-binding microarray (RPBM); PBS, 2% BSA, 51.3 ng/ul salmon testes DNA, 50 uM zinc acetate, 200 nM TF, 25 C, 1 h; high values mean tight binding. As to conditions: protein: recombinant; tags: N-terminal polyhistidine and DsRed monomer fusion (pET32a); chain copies: 2; label: CyDye5-dUTP incorporated in the synthesized complementary strand; 3' TTTTT single-stranded linker to array surface; dsDNA, one strand shown. The procedure, abridged:
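Using Ni–NTA, transcription factors fused N-terminally to polyhistidine and DsRed were purified after expression in E. coli BL21-CodonPlus. These were incubated at 200 nM with a blocked, double-stranded custom Agilent array for 1 h at 25 °C in a buffer containing 50 µM zinc acetate, and the array was washed. The binding signal is per-feature fluorescence intensity (arbitrary units) on an Axon 4000B scanner.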
For the sequence “TGGGCCAGGTGACTCGCCACGTGGCCTCCTCGTAGGGCGGCGGAGTCACCTAGTGCAG”, the binding signal was 12300 fluorescence intensity (a.u.).

As to “GATAGGGATGACGCGGAGGTGGCCAGCCGTTCCACGTACTCGGAGTCACCTAGTGCAG”, the binding signal is 7600 fluorescence intensity (a.u.).

On to “CTCCCTCTGTCACCGCCCGTTCCTCTCCCGTTTGCCACGTCGGAGTCACCTAGTGCAG”, for which the binding signal is 10800 fluorescence intensity (a.u.).

In the case of “CTTCTTCGTTAGGGCGGCTACGTGTTTTAAAGGTTTGGCCCGGAGTCACCTAGTGCAG”, the binding signal was 4330 fluorescence intensity (a.u.).

With “AACCTGAGGGATTCAATAGCTCAAGTGAAGTCCGACGTTGCGGAGTCACCTAGTGCAG”, the binding signal was 20600 fluorescence intensity (a.u.).

Consider “GGCGGCCACTGCATCGTTGGCGCCGTCCATCTCCATTAATCGGAGTCACCTAGTGCAG”, for which the binding signal was 3530 fluorescence intensity (a.u.).

On to “GAAATGGAACACCTGTCCACGTGAGCCGCCAATCCGCCGGCGGAGTCACCTAGTGCAG”, for which the binding signal was 3370 fluorescence intensity (a.u.).

“TATGCCCTGGTGGCATGCGATGTGTCAATTTATGGTCTTGCGGAGTCACCTAGTGCAG”: the binding signal is 4000 fluorescence intensity (a.u.).

With “TGTCTCAGTCAGTGGATCACTGTGTCAGCACAGGCAGAGGCGGAGTCACCTAGTGCAG”, the binding signal is 7720 fluorescence intensity (a.u.).

For the sequence “CTGTTGCACGTGCTTTGTTCACCGAAGGTTCCAGCTACTCCGGAGTCACCTAGTGCAG”, the binding signal was 26900 fluorescence intensity (a.u.).

For “TTCCATGTGATGTCATCAACACGTACTCACCTGGCTACCTCGGAGTCACCTAGTGCAG”, the binding signal was 15600 fluorescence intensity (a.u.).

Take “TACGGCAGGATGCCACGTCAACAACCAGCCTCTCCCTTCCCGGAGTCACCTAGTGCAG”: the binding signal was 30800 fluorescence intensity (a.u.).

As to “TTTCTTTCAATATGGCATTAGTTGTCTTGCTGAGTTGGTTCGGAGTCACCTAGTGCAG”, the binding signal was 4290 fluorescence intensity (a.u.).

As to “TTAGAAGATAAATACACGTACGCGCGTGAGGCTAGCTATCCGGAGTCACCTAGTGCAG”, the binding signal was 6050 fluorescence intensity (a.u.).

On to “TCACTTCTATTCGTTCCTAGCTAGTAGCAAATTAAGCTGCCGGAGTCACCTAGTGCAG”, for which the binding signal was 8130 fluorescence intensity (a.u.).

For “GCATTCTGACGCTATTGCATGGACAAACCATTATCCAAAGCGGAGTCACCTAGTGCAG”, the binding signal was 3730 fluorescence intensity (a.u.).

With “ATCGCGCCCGAACCTACGCAGGGTCACTTACAGCGGGGCCCGGAGTCACCTAGTGCAG”, the binding signal is 6000 fluorescence intensity (a.u.).

Consider “TCCCGCCACAAGCAACCAAGAAATCAAGAAACCGTTTCAGCGGAGTCACCTAGTGCAG”, for which the binding signal was 19600 fluorescence intensity (a.u.).

Turning to “TTTAGTATGTTTGCATGGCACGTGGAAGATCATTACTTATCGGAGTCACCTAGTGCAG”, the binding signal is 4050 fluorescence intensity (a.u.).

Take “TAACAACGTGATAACAGCAATTACGTGGTTGTTAGCAACCCGGAGTCACCTAGTGCAG”: the binding signal was 6370 fluorescence intensity (a.u.).

Turning to “GGGCTATATATTTATAGCCAGCTGTAGCACGGACTCCAAGCGGAGTCACCTAGTGCAG”, the binding signal is 3310 fluorescence intensity (a.u.).

Turning to “GGCCGCCACGCCGGGACGGTGCTGGCGGGCGGGCGCGCGCCGGAGTCACCTAGTGCAG”, the binding signal is 3320 fluorescence intensity (a.u.).

“TGGCCTTTCTTCCCGCCACATGTCACCCACCCCTAGCCCTCGGAGTCACCTAGTGCAG”: the binding signal was 4670 fluorescence intensity (a.u.).

Take “ATTGAATATTGAATTCTCTCTAGTTCCGCCACGTGTCCGCCGGAGTCACCTAGTGCAG”: the binding signal was 22800 fluorescence intensity (a.u.).

As for “CTAATGCCACGTAAGTGCCACGTGGCATGAAAACCGGGTTCGGAGTCACCTAGTGCAG”, the binding signal was 46300 fluorescence intensity (a.u.).

“ATGGCAACACAATCGTCGTCGTCGCCGCCGCCGTCAGCATCGGAGTCACCTAGTGCAG”: the binding signal is 4900 fluorescence intensity (a.u.).

For “AATTTTCAATGATACGTTTATTGTATGACTATTGACTAGTCGGAGTCACCTAGTGCAG”, the binding signal was 3300 fluorescence intensity (a.u.).

As to “GAGTCCGGGGCAGCCAGATCCAGCGCCACCTCACCCATGGCGGAGTCACCTAGTGCAG”, the binding signal was 8200 fluorescence intensity (a.u.).

As for “ACTGCTGCCTCACGCAGTCACGACGCTGAAGTGGTAGTAGCGGAGTCACCTAGTGCAG”, the binding signal was 3650 fluorescence intensity (a.u.).

Consider “TTTCATTTGCAATGCGCTTTTGTAACTAAAGGAATTGTTCCGGAGTCACCTAGTGCAG”, for which the binding signal is 27200 fluorescence intensity (a.u.).

In the case of “AAACCTCCACCACCACCGCCACCACCGCCGCGCAAAACCCCGGAGTCACCTAGTGCAG”, the binding signal was 3740 fluorescence intensity (a.u.).

For the sequence “AACCCCTTTTGCTGAGCCTCTTCTAAGTGAACAGATTACTCGGAGTCACCTAGTGCAG”, the binding signal was 3140 fluorescence intensity (a.u.).

As for “CGTGCATTTCAGCCGCTCTTGCCGTGCCACGCCCACTCCCCGGAGTCACCTAGTGCAG”, the binding signal is 4410 fluorescence intensity (a.u.).

Take “TCACGTGTATATATGCCACCGTCACGCCTTCTCCAGGGCTCGGAGTCACCTAGTGCAG”: the binding signal was 4800 fluorescence intensity (a.u.).

As for “CATCACAATACGTCAATATCACATCCGGATGACTAGGTAACGGAGTCACCTAGTGCAG”, the binding signal was 4740 fluorescence intensity (a.u.).

Turning to “TTATTTGGATGTAAGTAGCTATATCATTTGTGTTAAGAATCGGAGTCACCTAGTGCAG”, the binding signal is 30000 fluorescence intensity (a.u.).

Take “ACTTGATGTTGTCATATGATGGTTGCATGCTTGCATGTTTCGGAGTCACCTAGTGCAG”: the binding signal is 3840 fluorescence intensity (a.u.).

For “CGTGTATTTATTACTGACACGTGGATCCGATGATTACTGGCGGAGTCACCTAGTGCAG”, the binding signal was 14800 fluorescence intensity (a.u.).

As for “TGAGCTTACACGTTTTGATACCTGTGATGTTCGAATAAACCGGAGTCACCTAGTGCAG”, the binding signal is 3220 fluorescence intensity (a.u.).

In the case of “TTCTTCTTCTATTCCACGTCCACGTGTATGGCCAGGAGTTCGGAGTCACCTAGTGCAG”, the binding signal is 16100 fluorescence intensity (a.u.).

On to “GGAAGCGCCAGCCAGCGCTCGCCGTTGTCACCTGTCACACCGGAGTCACCTAGTGCAG”, for which the binding signal is 3480 fluorescence intensity (a.u.).

Turning to “TAAGGTACATCCATATGTTGTTCTTTTAATTTCTACGTGTCGGAGTCACCTAGTGCAG”, the binding signal is 3320 fluorescence intensity (a.u.).
